Source: ChEMBL document CHEMBL3988442, “University of Dundee, Small-Polar-MMV Screening Library” (2021).

By UniProt entry, the sequences of proteins in these tests, tags left out.
UniProt E9BF75, entry or part of it: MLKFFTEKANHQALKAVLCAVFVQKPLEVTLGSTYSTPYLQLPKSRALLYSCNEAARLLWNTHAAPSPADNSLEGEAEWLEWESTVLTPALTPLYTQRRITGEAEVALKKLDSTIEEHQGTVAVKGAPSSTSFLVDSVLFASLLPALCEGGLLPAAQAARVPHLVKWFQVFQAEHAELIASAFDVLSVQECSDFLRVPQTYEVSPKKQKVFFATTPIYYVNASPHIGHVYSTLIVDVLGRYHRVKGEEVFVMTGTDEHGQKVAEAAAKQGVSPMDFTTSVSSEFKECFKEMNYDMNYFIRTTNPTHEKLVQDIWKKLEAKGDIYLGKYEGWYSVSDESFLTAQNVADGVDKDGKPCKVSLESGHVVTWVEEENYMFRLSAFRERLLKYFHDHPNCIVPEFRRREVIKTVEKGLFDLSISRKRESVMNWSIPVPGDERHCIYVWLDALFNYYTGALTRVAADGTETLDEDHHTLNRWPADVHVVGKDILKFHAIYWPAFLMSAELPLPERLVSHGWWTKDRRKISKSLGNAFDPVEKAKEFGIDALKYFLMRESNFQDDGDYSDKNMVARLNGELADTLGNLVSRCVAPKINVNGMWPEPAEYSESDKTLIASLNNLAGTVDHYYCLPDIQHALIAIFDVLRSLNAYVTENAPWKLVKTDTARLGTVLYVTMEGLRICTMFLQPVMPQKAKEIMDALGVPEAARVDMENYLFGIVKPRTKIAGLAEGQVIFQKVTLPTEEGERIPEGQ

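Methionyl-tRNA synthetase (putative), Leishmania donovani (UniProt E9BF75). Primary screen of methionyl-tRNA synthetase; the read-out is not stated. The test concentration is not given. The values are filed as inhibition. Size under these conditions: about 68,000 compounds, about 24 of them at 50% or above in at least one test.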

All values are in %. How 0% and 100% were set is not recorded. Most values in the screen are low, and negative values occur. Compounds were drawn at random from those tested, without regard to their results.

COCCN1C[C@@H]2[C@@H](OC)CCN(Cc3ccncc3)[C@@H]2C1 gave 21.88%.
CCC(=O)c1ccc(OCC(=O)NCC2CCCO2)cc1 (stereo not given) gave 11.06%.
CCC(C)CN1CCC(n2cc(C3CCCCC3)nn2)CC1 (stereo not given) gave 8.939%.
COc1ccc(C)cc1CCNS(C)(=O)=O gave 16.67%.
CCOc1ncnc2c1CCN(S(=O)(=O)c1ccccc1)CC2 gave 11.73%.
Cc1cc(C(NC(=O)CNS(C)(=O)=O)C(C)C)c(C)s1 (stereo not given) gave 1.567%.
CC(C)COCCC(=O)Nc1cc(-n2nnnc2C2CC2)ccc1F gave 13.09%.
N#Cc1nc(COc2ccc3c(c2)OCO3)oc1N1CCCC1 gave 6.364%.
Cn1cc(CN2CCC[C@]3(C[C@@H](Oc4ccccn4)CO3)C2)cn1 gave 2.198%.
CCOC(=O)CCNC(=O)c1cc(Cl)cc2cccnc12 gave 16.91%.
Cc1cc(N(C)C)nc(N2CCn3c(nnc3C3CC3)C2)n1 gave 4.559%.
COc1ccc(C(N)=O)cc1NCc1nc(-c2cccs2)oc1C gave 22.16%.
CC/C(C)=C/CCN1CCN(C)C2(CCNC(=O)CC2)C1 (stereo not given) gave 11.17%.
COCC1CN(C(=O)Cc2ccc(F)cc2)Cc2ccnn2C1 (stereo not given) gave 13.65%.
Cc1ocnc1C(=O)N1CCC(c2nccn2Cc2ccncc2)CC1 gave 14.05%.
O=C(c1ccoc1)N1CC[C@H]2C[C@@H](c3nnc(C4CC4)o3)O[C@@H]2C1 gave 9.819%.
Cn1cc(C(NCc2ccc(F)cc2)c2cccc(F)c2)cn1 (stereo not given) gave 6.283%.
O=C(NC1CCCc2c1[nH]c1ccc(F)cc21)c1n[nH]c2c1CCCC2 (stereo not given) gave 14.4%.
O=C(CCC(=O)N1CCNC(=O)C1c1cccc(F)c1)NC1CCCC1 (stereo not given) gave 12.99%.
CCc1cnc(N)nc1N1CCN(C(C)=O)CC1 gave 13.9%.
Cc1noc(C)c1CN1CCc2ncc(Cn3cccn3)n2CC1 gave 0%.
Oc1ccc(N2CCN(Cc3cc4c(cc3Br)OCCO4)CC2)cc1 gave 8.85%.
CSCc1noc(CNS(=O)(=O)c2cccc(C(=O)NC3CC3)c2)n1 gave 4.482%.
Cn1nccc1CNC(=O)CCn1nc(C(F)(F)F)cc1C1CC1 gave 5.676%.
c1ccc(Cn2ccnc2CNCC2CCCN2c2cccnn2)cc1 (stereo not given) gave 1.205%.
CN1Cc2ccccc2CC2(CCN(c3ncccn3)CC2)C1=O gave 10.87%.
CN1C[C@@H](O)[C@]2(CCN(C(=O)c3ccccc3)C2)S1(=O)=O gave 3.514%.
c1cncc(-c2nnn3c2COCC(CNCC2CCOCC2)C3)c1 (stereo not given) gave 3.333%.
CC(C)c1nnc2n1CCN(Cc1ccc3c(c1)OCCO3)C2 gave 6.504%.
Cc1cccc(NC(=O)c2sc(C)nc2C)n1 gave 6.761%.
CC(C)NC(=O)C1CCc2nnc(C(C)(C)C)n21 (stereo not given) gave 12.57%.
CCS(=O)(=O)c1nccn1-c1cccc(F)c1 gave 9.355%.
CNC(=O)CS(=O)(=O)C1CCN(S(=O)(=O)c2cccc(C(C)=O)c2)CC1 gave 2.448%.
Cc1cccc(C(=O)N2C[C@H]3CC[C@@H]2CN(S(=O)(=O)N(C)C)C3)n1 gave 19.94%.
N#Cc1ccc(CN2CCCCC2Cn2cncn2)c(F)c1 (stereo not given) gave 9.589%.
COCCN1C[C@H]2[C@@H](C1)N(Cc1ccc(C)o1)CC[C@H]2OC gave 15.5%.
Cc1ccc(CNC(=O)NCc2ccco2)s1 gave 19.2%.
Cc1ccoc1C(=O)NC1CCN(C(=O)Nc2ccccn2)CC1 gave 14.92%.
c1ccc2c(c1)SCCC2NCc1ccc(N2CCOCC2)cc1 (stereo not given) gave 10.43%.
CC(C)(C)C(=O)CN1CCc2ccccc2NCCC1=O gave 5.676%.
CCc1ccc2nc(NCCCN(CCO)CCO)cc(C)c2c1 gave 17.91%.
O=C(c1cscn1)N(CCCO)S(=O)(=O)c1cccs1 gave 10.57%.
O=C1COc2c(cccc2C(=O)N2CCCCC2Cn2cccn2)N1 (stereo not given) gave 20.14%.
CCN(CCCc1ccccc1C)S(C)(=O)=O gave 8.052%.
O=C(Nc1cccc(F)c1)N1CCN(Cc2noc(C3CC3)n2)CC1 gave 11.68%.
Cc1nn(CCCNC(=O)C2CCN(S(C)(=O)=O)CC2)cc1Br gave 13.96%.
COc1ccc2c(c1)OC1(CCN(Cc3ccc(C)cc3)CC1)CC2=O gave 5.278%.
Cn1cccc1C(=O)N1CCC2(CCCN(CC3CC3)C2=O)C1 (stereo not given) gave 16.31%.
CCn1ncc2c1C(COC)N(C(=O)c1ccc3c(c1)OCO3)CC2 (stereo not given) gave 15.29%.
CC(C)c1nccc(-c2nccn2CCN(C)S(C)(=O)=O)n1 gave 3.217%.
O=C1CC(c2ccc(C(=O)O)cc2)c2ncn(-c3ccc(F)cc3)c2N1 (stereo not given) gave 3.377%.
CCC1CCC(CNC(=O)c2c[nH]c(=O)c(Cl)c2)CC1 (stereo not given) gave 1.805%.
CCCn1nc(C(=O)N(C)Cc2cnn(C)c2)ccc1=O gave 6.748%.
Cn1cccc1C(=O)NC1CCN(c2ccc(OC(F)(F)F)cc2)CC1 gave 8.042%.

Repeated from the top, 4 entries:

structure	inhibition
COCCN1C[C@@H]2[C@@H](OC)CCN(Cc3ccncc3)[C@@H]2C1	21.88
CCC(=O)c1ccc(OCC(=O)NCC2CCCO2)cc1 (stereo not given)	11.06
CCC(C)CN1CCC(n2cc(C3CCCCC3)nn2)CC1 (stereo not given)	8.939
COc1ccc(C)cc1CCNS(C)(=O)=O	16.67